Results are given in words; binding and its absence hold for the method and conditions named. Binding seen in cells or lysates may run through a third protein. Some binding calls cover weakened binding; strength is not graded here.
B1: protease serine 23 (PRSS23) (protein, UniProt Q9D6X6 23-382)
chain: YTVPWKPTWPAYRLPVVLPQSTLNLAKADFDAKAKLEVSSSCGPQCHKGTPLPTYEEAKQYLSYETLYANGSRTETRVGIYILSNGEGRARGRDSEATGRSRRKRQIYGYDGRFSIFGKDFLLNYPFSTSVKLSTGCTGTLVAEKHVLTAAHCIHDGKTYVKGTQKLRVGFLKPKYKDGAGGDNSSSSAMPDKMKFQWIRVKRTHVPKGWIKGNANDIGMDYDYALLELKKPHKRQFMKIGVSPPAKQLPGGRIHFSGYDNDRPGNLVYRFCDVKDETYDLLYQQCDAQPGASGSGVYVRMWKRPQQKWERKIIGIFSGHQWVDMNGSPQDFNVAVRITPLKYAQICYWIKGNYLDCREG

By UniProt entry, the sequences of proteins in these tests, tags left out. Residues count along the entry.
UniProt Q64339, residues 1-155: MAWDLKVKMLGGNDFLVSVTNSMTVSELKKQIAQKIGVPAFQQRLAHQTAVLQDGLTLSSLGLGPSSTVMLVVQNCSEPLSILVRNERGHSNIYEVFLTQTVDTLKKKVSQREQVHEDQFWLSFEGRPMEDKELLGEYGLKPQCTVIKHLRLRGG
UniProt E9Q555: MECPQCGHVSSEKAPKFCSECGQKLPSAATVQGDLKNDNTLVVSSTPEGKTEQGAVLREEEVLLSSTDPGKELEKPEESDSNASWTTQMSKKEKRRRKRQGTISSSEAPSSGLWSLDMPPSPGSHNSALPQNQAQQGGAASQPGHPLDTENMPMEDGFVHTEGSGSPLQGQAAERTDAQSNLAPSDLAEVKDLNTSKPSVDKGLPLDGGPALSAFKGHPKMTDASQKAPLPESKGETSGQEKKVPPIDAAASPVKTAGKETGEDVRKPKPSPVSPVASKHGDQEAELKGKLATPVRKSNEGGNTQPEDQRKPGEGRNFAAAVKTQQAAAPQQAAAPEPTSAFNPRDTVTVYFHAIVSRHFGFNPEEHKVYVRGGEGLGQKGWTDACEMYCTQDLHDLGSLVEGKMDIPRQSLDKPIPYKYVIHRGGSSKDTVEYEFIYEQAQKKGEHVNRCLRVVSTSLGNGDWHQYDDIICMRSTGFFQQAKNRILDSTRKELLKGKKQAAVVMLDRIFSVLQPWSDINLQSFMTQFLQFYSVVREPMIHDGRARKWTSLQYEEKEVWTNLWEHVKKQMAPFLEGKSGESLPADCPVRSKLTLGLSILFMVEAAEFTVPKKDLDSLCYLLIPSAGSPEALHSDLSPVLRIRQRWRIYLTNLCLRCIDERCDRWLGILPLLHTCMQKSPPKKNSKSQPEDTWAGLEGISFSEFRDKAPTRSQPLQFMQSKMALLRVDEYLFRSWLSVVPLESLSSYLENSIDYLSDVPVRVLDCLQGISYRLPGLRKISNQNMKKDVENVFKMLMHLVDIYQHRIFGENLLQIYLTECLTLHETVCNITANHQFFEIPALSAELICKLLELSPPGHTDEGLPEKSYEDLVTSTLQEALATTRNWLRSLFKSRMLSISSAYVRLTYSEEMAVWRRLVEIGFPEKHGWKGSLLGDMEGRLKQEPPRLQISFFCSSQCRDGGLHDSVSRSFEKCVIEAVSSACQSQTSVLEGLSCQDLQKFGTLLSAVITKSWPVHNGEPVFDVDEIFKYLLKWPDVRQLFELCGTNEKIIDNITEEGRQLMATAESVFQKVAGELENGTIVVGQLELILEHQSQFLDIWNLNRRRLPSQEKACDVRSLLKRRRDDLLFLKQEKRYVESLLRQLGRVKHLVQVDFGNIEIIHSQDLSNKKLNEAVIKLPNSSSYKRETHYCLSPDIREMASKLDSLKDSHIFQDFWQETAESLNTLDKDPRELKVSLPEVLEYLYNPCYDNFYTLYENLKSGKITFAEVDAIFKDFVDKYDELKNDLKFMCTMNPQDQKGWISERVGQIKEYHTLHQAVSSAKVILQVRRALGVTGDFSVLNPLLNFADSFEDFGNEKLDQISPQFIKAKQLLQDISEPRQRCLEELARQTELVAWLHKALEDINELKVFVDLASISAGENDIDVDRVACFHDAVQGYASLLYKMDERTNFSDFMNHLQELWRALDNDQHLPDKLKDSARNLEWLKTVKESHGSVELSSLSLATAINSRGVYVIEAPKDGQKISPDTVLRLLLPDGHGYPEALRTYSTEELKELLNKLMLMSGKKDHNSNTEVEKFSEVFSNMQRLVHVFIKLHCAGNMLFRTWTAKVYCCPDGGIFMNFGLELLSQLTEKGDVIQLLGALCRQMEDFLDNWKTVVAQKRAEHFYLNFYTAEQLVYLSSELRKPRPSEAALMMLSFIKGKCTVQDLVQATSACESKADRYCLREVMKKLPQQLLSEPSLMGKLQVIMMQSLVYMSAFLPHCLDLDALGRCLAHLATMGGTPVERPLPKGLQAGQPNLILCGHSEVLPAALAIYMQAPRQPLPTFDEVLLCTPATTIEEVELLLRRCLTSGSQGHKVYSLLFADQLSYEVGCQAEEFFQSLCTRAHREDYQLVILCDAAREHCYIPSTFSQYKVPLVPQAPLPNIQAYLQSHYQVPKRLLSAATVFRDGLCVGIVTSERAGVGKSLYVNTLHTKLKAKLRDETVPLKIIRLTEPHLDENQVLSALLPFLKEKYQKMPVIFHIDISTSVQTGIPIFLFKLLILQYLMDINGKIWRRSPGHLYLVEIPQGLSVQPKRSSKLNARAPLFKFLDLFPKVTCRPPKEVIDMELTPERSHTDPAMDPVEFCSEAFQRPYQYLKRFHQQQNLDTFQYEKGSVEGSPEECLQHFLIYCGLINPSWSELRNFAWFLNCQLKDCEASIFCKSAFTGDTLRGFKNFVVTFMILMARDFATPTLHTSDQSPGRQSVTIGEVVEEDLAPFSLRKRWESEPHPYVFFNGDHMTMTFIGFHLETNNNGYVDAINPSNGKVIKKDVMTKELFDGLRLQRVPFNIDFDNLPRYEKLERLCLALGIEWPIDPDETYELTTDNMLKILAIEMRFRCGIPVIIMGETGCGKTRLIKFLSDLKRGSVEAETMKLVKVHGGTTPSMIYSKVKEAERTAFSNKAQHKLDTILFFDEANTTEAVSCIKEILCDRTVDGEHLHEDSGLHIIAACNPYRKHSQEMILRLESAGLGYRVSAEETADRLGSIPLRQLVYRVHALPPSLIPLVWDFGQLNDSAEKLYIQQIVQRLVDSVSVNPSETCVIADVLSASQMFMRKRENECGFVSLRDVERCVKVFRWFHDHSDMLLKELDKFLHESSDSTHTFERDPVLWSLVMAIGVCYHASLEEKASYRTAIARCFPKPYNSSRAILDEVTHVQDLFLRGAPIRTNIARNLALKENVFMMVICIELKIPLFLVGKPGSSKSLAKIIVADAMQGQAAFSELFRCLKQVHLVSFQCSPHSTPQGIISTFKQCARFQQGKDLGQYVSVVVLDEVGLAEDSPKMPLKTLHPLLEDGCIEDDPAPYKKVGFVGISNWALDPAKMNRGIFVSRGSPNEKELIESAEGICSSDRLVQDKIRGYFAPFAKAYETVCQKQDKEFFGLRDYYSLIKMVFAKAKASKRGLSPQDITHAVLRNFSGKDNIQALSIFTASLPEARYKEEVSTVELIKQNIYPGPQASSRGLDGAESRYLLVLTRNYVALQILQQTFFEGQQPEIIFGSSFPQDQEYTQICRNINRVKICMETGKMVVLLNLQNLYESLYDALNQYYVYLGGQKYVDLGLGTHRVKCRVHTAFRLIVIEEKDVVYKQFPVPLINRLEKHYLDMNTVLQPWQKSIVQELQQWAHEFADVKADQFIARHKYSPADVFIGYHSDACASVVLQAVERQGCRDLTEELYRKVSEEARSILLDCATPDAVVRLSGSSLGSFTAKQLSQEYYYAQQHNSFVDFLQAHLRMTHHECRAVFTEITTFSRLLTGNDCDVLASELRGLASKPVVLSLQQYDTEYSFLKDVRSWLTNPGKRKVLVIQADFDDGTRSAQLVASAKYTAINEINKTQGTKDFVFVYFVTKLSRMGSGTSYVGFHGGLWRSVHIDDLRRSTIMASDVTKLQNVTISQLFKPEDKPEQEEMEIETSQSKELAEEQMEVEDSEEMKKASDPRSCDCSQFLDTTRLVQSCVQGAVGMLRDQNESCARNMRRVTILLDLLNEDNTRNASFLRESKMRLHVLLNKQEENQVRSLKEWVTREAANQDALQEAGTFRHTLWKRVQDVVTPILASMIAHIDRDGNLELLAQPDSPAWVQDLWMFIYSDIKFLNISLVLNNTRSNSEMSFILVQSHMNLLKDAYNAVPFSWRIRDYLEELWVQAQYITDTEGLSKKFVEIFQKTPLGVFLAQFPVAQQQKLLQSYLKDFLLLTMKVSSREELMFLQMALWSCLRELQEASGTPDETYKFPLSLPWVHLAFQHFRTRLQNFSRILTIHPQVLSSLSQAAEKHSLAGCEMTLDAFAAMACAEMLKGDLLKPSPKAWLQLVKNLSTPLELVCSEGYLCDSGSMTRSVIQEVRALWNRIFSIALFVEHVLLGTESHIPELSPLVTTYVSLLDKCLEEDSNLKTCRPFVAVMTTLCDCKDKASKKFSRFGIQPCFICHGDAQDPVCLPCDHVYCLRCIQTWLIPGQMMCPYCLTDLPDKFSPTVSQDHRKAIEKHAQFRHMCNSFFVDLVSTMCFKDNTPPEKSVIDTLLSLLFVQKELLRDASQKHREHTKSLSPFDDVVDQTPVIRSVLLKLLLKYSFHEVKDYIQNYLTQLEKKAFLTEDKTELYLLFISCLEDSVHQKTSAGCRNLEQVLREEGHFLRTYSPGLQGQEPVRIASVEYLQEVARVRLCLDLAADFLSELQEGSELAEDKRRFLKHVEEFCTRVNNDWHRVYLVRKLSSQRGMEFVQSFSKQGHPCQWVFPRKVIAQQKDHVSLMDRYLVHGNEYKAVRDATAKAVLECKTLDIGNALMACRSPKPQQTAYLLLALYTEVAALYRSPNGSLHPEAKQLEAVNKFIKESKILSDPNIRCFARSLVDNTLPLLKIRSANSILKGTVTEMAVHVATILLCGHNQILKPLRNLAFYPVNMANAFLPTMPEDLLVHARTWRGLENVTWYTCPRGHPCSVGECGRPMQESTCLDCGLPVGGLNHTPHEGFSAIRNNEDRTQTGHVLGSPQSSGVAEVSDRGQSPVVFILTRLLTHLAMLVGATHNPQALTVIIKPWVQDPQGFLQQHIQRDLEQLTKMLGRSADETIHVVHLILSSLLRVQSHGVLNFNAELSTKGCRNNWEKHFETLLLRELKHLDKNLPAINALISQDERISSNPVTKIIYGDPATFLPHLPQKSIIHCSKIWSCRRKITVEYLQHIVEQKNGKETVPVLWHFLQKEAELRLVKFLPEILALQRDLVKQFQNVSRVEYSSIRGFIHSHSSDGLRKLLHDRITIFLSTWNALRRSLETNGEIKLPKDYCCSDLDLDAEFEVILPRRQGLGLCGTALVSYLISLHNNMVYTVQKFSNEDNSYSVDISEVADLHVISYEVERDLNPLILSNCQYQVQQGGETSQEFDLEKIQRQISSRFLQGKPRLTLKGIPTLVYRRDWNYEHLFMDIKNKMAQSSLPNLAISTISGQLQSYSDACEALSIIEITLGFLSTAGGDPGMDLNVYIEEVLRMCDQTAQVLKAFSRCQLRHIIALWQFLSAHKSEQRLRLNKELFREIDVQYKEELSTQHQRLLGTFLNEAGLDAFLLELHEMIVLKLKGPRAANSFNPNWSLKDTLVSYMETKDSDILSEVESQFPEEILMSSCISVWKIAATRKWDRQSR

Molecular target: FLAG-ISG15 (interferon-stimulated gene 15) (mouse) (UniProt Q64339)
Experiment: co-IP; mGCs transfected with FLAG-ISG15; lysate immunoprecipitated with anti-FLAG beads overnight at 4 °C, PBST washes; candidates detected by immunoblot

Molecule	binding
ring finger protein 213 (RNF213) (from UniProt E9Q555 1-5148)	binds
B1	binds

Source: PMC10176748
